{
  "source": "PubChem BioAssay AID1347426",
  "about": "(Functional Genomics Laboratory (NCATS/FGL), 2020)",
  "note": "The whole screen tested about 31,000 sequences, of which about 1,400 (4.5%) were called active.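 The calls were made as follows: active = median seed-adjusted z-score above 1 or below -1; inactive = the rest.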 Some of the results follow.",
  "data": [
    {"assay": "Novel Modifiers of Survival Motor Neuron (SMN) Protein: Gene Identification via Genome-wide siRNA Screen;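 also: luminescence tracks full-length SMN protein made from the SMN2 reporter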", "conditions": "HEK293T SMN2-luciferase reporter, siRNA knockdown, 72 h; actives lie on both sides", "method_in_brief": "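Each of three siRNAs per gene is reverse-transfected (1 pmol) into reporter HEK293T cells whose luciferase output tracks SMN protein level. After 72 h culture, ONE-Glo luminescence is control-normalized, log10-transformed and MAD-standardized; Common Seed Analysis deprioritizes seed-driven hits.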", "values": [
      {"sequence": "AUUUAUUACUUACUGCUUATT against SLC31A2", "median seed-adjusted z-score": "inactive: 0.401"},
      {"sequence": "GCAUGAUCCUUGUAGGACUTT against SGMS1", "median seed-adjusted z-score": "inactive: -0.287"},
      {"sequence": "GUAGGUGAGUGGAAAUUCATT against DRD2", "median seed-adjusted z-score": "inactive: -0.0273"},
      {"sequence": "ACGUGAGACUGCUCAGUGATT against GGA3", "median seed-adjusted z-score": "inactive: -0.239"},
      {"sequence": "GGACUUAUUCAAUGGGAUATT against GPA33", "median seed-adjusted z-score": "inactive: 0.138"},
      {"sequence": "GAGUCAUUAUUGACAACAATT against APH1B", "median seed-adjusted z-score": "inactive: -0.135"},
      {"sequence": "CAGAGGUUGUGACACGAAATT against PAK1", "median seed-adjusted z-score": "inactive: -0.168"},
      {"sequence": "ACGCGUUGCCCUUCACUAATT against CHST5", "median seed-adjusted z-score": "inactive: 0.0149"},
      {"sequence": "GUUCCAUCCUGAGCACUUUTT against LPXN", "median seed-adjusted z-score": "inactive: -0.065"},
      {"sequence": "CCGUUUUGGUGAGUCAACATT against RANBP2", "median seed-adjusted z-score": "active: 1.53"},
      {"sequence": "GCUCAUGGUUGAUGAUUCUTT against RABGGTA", "median seed-adjusted z-score": "inactive: -0.0601"},
      {"sequence": "GAGCAAGGCUUAAUGGUCATT against CNGA3", "median seed-adjusted z-score": "inactive: -0.125"},
      {"sequence": "CCCUGGAUCUGUCUCGUAATT against ZNF415", "median seed-adjusted z-score": "inactive: 0.222"},
      {"sequence": "GGAGAUCUAUUUCAGAGUATT against SLC30A8", "median seed-adjusted z-score": "inactive: -0.767"},
      {"sequence": "CAAUCUUCUUGGGAUUAUUTT against TRPC7", "median seed-adjusted z-score": "inactive: 0.146"},
      {"sequence": "GGAUCCUGCUAUAUGCUGATT against NPR2", "median seed-adjusted z-score": "inactive: 0.0712"},
      {"sequence": "GGAACUCGCUACAAAGGAATT against DPM1", "median seed-adjusted z-score": "inactive: -0.214"},
      {"sequence": "AUGUGCACCUGACUACUCATT against KRT35", "median seed-adjusted z-score": "inactive: -0.1"},
      {"sequence": "GGAUGGGUUUUGAUAUGAATT against MTMR3", "median seed-adjusted z-score": "inactive: 0.281"},
      {"sequence": "CCUCACUUGUGAAUCUUUATT against RNF4", "median seed-adjusted z-score": "inactive: 0.787"},
      {"sequence": "CCACGAUCAUUCAGCUGCATT against PROCR", "median seed-adjusted z-score": "inactive: -0.476"},
      {"sequence": "GGAUCUUCUGACCAGCUCATT against ZNF773", "median seed-adjusted z-score": "inactive: 0.345"},
      {"sequence": "GUCGGAAGGUGAUUGAAUATT against PDIA2", "median seed-adjusted z-score": "inactive: 0.151"},
      {"sequence": "GCCUGACUUCGACUGCUCATT against GFER", "median seed-adjusted z-score": "inactive: 0.402"},
      {"sequence": "CCAUCAACCAGAUAGGCAATT against MATN1", "median seed-adjusted z-score": "inactive: -0.271"},
      {"sequence": "GAACAUUGGUUCUUAGAGATT against MKRN2", "median seed-adjusted z-score": "inactive: 0"},
      {"sequence": "UCAUCUUCAUCGACCGGAATT against AGPAT1", "median seed-adjusted z-score": "active: -1.38"},
      {"sequence": "UCCAGACCCUAGUACCUAATT against CASP5", "median seed-adjusted z-score": "inactive: 0.655"},
      {"sequence": "ACACGAUUAGAUUCAAGCATT against SIK1", "median seed-adjusted z-score": "inactive: 0.887"},
      {"sequence": "CGAUAUAAGCUCCGAGAGATT against POLR2E", "median seed-adjusted z-score": "active: -1.25"},
      {"sequence": "GCAACAUCCUGGUUUUCGATT against LRP2", "median seed-adjusted z-score": "inactive: -0.512"},
      {"sequence": "AGGCAGAACUUUUGGAAAATT against TCF15", "median seed-adjusted z-score": "inactive: -0.361"},
      {"sequence": "AGAGUUGGUGGUCCAGAUATT against BTNL9", "median seed-adjusted z-score": "inactive: 0.0189"},
      {"sequence": "GGACCAACCCAGAAUCGUATT against MAOB", "median seed-adjusted z-score": "inactive: 0"},
      {"sequence": "GGAUGUCUAGAUUACAUUUTT against PDE12", "median seed-adjusted z-score": "inactive: 0.422"},
      {"sequence": "GGUGGUUACCUGCAACUAUTT against POLI", "median seed-adjusted z-score": "inactive: 0.857"},
      {"sequence": "AGACUGACCUCAACCAUGATT against CKM", "median seed-adjusted z-score": "inactive: -0.189"},
      {"sequence": "GGAAGGAGGUGACUAUGGATT against PLA2G4D", "median seed-adjusted z-score": "inactive: -0.233"},
      {"sequence": "CUGGGUGCCUGAUAUCUUUTT against GABRR3", "median seed-adjusted z-score": "inactive: 0.368"},
      {"sequence": "GCACAGUAGUCACCAAUGATT against FUCA2", "median seed-adjusted z-score": "inactive: 0.562"},
      {"sequence": "GGCUAGUGGUCAACAAUCATT against TFR2", "median seed-adjusted z-score": "inactive: 0.965"},
      {"sequence": "CAAUCAUCCCAGACGAUCATT against GATM", "median seed-adjusted z-score": "inactive: 0.182"},
      {"sequence": "CGGUGCUGUUCGUCGUCUATT against GJD3", "median seed-adjusted z-score": "inactive: -0.251"},
      {"sequence": "AGAUUGCUGGGAUUCCCUATT against RAB36", "median seed-adjusted z-score": "inactive: -0.348"},
      {"sequence": "CAGUGGAAAUCGAGCAGGATT against HCN3", "median seed-adjusted z-score": "inactive: 0.301"},
      {"sequence": "GUCCUAUCACCGUAUCUUATT against SF3B4", "median seed-adjusted z-score": "active: -2.56"},
      {"sequence": "CAGGUUCUAUGAAUUUGAATT against PHF1", "median seed-adjusted z-score": "inactive: -0.196"},
      {"sequence": "GGCUAGUAAGGAACCAGGATT against GLCE", "median seed-adjusted z-score": "inactive: 0.752"},
      {"sequence": "GUGCAACAGUAUACGUUAATT against CDH2", "median seed-adjusted z-score": "inactive: -0.235"},
      {"sequence": "GCAGGUGUAUACUACGUGATT against G6PC", "median seed-adjusted z-score": "inactive: -0.628"},
      {"sequence": "GCAUGAGAUUUUUACUUGATT against BDH1", "median seed-adjusted z-score": "inactive: -0.0253"},
      {"sequence": "GCAUCGCACCCAUUUAUGATT against ORC4L", "median seed-adjusted z-score": "inactive: -0.286"},
      {"sequence": "GAAUAGAUCCUCUAAGUAUTT against MTMR9", "median seed-adjusted z-score": "inactive: 0.133"},
      {"sequence": "CGUUAUGCCUGGUCUCCUATT against SPPL3", "median seed-adjusted z-score": "inactive: 0.652"},
      {"sequence": "GAAGGAGAUUGGGCGGAUUTT against ETFB", "median seed-adjusted z-score": "inactive: 0.0669"},
      {"sequence": "GGCUCAAUGUGGAGCGUGUTT against AGAP3", "median seed-adjusted z-score": "inactive: 0.554"},
      {"sequence": "GUAGCUCAUUUGUAAGGAATT against ZNF578", "median seed-adjusted z-score": "inactive: -0.808"},
      {"sequence": "CUUCCUCUAUGACAACUGATT against NRXN1", "median seed-adjusted z-score": "inactive: 0.433"},
      {"sequence": "GACUCUACAUGAAACUCCATT against GATA6", "median seed-adjusted z-score": "inactive: 0.546"},
      {"sequence": "AGACAAAUCUGAUCUUCUUTT against GADL1", "median seed-adjusted z-score": "inactive: 0"},
      {"sequence": "GUGGUAUUCUGACUGCUAATT against KRT9", "median seed-adjusted z-score": "inactive: 0.545"},
      {"sequence": "AGGAAGAAUUUAAUCCUGATT against CYP26A1", "median seed-adjusted z-score": "inactive: 0.0569"},
      {"sequence": "GGGAAAAAGUUCUUGCGUATT against USP12", "median seed-adjusted z-score": "inactive: 0.121"},
      {"sequence": "CAAGCUAACUGAGAAGCAATT against AHCY", "median seed-adjusted z-score": "inactive: -0.189"},
      {"sequence": "GCGGAUUUCUUCUUAGUCATT against SLC17A3", "median seed-adjusted z-score": "inactive: -0.296"},
      {"sequence": "CAGGAUACUUCAUUAUUCATT against AMPH", "median seed-adjusted z-score": "inactive: -0.725"},
      {"sequence": "GGAAGAAUGUGCUUGGUCATT against PFKM", "median seed-adjusted z-score": "inactive: -0.362"},
      {"sequence": "CCGUUAGACCAGAACGGAATT against MGA", "median seed-adjusted z-score": "inactive: 0.0136"},
      {"sequence": "GCAUCACCCAAGUAGUUAUTT against SFXN2", "median seed-adjusted z-score": "inactive: 0.365"}
    ]}
  ]
}
